Assay results: article PMC10410066
These are yes or no findings as the source states them, for the method shown. A result given as binding can be weak or reduced; the word gives no strength. Sequences can lack the tags named with a protein. For some of these results: Binding seen in cells or lysates may run through a third protein.

What was measured:
[1] = target: N571 Q55 HTT (N-terminal huntingtin fragment 1-571 with 55 glutamines) (human); assay: FRET or BRET; TR-FRET protein-protein interaction assay on lysates of co-transfected HEK293T cells; antibody pair 2B7-Tb (HTT N17) / anti-FLAG-D2
[2] = target: N571 Q55 HTT (N-terminal huntingtin fragment 1-571 with 55 glutamines) (human); assay: ELISA; 2B7 (HTT N17) as capture antibody on the plate, anti-FLAG-D2 as detection antibody; lysates of HEK293T cells co-expressing N571 Q55 HTT and FLAG-tagged kinase; 1 h at RT; read on the Erenna Immunoassay System

| binding [2] | Binder | binding [1] |
| --- | --- | --- |
| binds | IKBKB S177E/S181E mutant, FLAG-tagged (enzyme, UniProt O14920 1-756) MSWSPSLTTQTCGAWEMKERLGTGGFGNVIRWHNQETGEQIAIKQCRQELSPRNRERWCLEIQIMRRLTHPNVVAARDVPEGMQNLAPNDLPLLAMEYCQGGDLRKYLNQFENCCGLREGAILTLLSDIASALRYLHENRIIHRDLKPENIVLQQGEQRLIHKIIDLGYAKELDQGELCTEFVGTLQYLAPELLEQQKYTVTVDYWSFGTLAFECITGFRPFLPNWQPVQWHSKVRQKSEVDIVVSEDLNGTVKFSSSLPYPNNLNSVLAERLEKWLQLMLMWHPRQRGTDPTYGPNGCFKALDDILNLKLVHILNMVTGTIHTYPVTEDESLQSLKARIQQDTGIPEEDQELLQEAGLALIPDKPATQCISDGKLNEGHTLDMDLVFLFDNSKITYETQISPRPQPESVSCILQEPKRNLAFFQLRKVWGQVWHSIQTLKEDCNRLQQGQRAAMMNLLRNNSCLSKMKNSMASMSQQLKAKLDFFKTSIQIDLEKYSEQTEFGITSDKLLLAWREMEQAVELCGRENEVKLLVERMMALQTDIVDLQRSPMGRKQGGTLDDLEEQARELYRRLREKPRDQRTEGDSQEMVRLLLQAIQSFEKKVRVIYTQLSKTVVCKQKALELLPKVEEVVSLMNEDEKTVVRLQEKRQKELWNLLKIACSKVRGPVSGSPDSMNASRLSQPGQLMSQPSTASNSLPEPAKKSEELVAEAHNLCTLLENAIQDTVREQDQSFTALDWSWLQTEEEEHSCLEQAS | – |
| binds | IKBKB kinase-dead mutant (IKBKB KD, K44M), FLAG-tagged (enzyme, UniProt O14920 1-756) MSWSPSLTTQTCGAWEMKERLGTGGFGNVIRWHNQETGEQIAIMQCRQELSPRNRERWCLEIQIMRRLTHPNVVAARDVPEGMQNLAPNDLPLLAMEYCQGGDLRKYLNQFENCCGLREGAILTLLSDIASALRYLHENRIIHRDLKPENIVLQQGEQRLIHKIIDLGYAKELDQGSLCTSFVGTLQYLAPELLEQQKYTVTVDYWSFGTLAFECITGFRPFLPNWQPVQWHSKVRQKSEVDIVVSEDLNGTVKFSSSLPYPNNLNSVLAERLEKWLQLMLMWHPRQRGTDPTYGPNGCFKALDDILNLKLVHILNMVTGTIHTYPVTEDESLQSLKARIQQDTGIPEEDQELLQEAGLALIPDKPATQCISDGKLNEGHTLDMDLVFLFDNSKITYETQISPRPQPESVSCILQEPKRNLAFFQLRKVWGQVWHSIQTLKEDCNRLQQGQRAAMMNLLRNNSCLSKMKNSMASMSQQLKAKLDFFKTSIQIDLEKYSEQTEFGITSDKLLLAWREMEQAVELCGRENEVKLLVERMMALQTDIVDLQRSPMGRKQGGTLDDLEEQARELYRRLREKPRDQRTEGDSQEMVRLLLQAIQSFEKKVRVIYTQLSKTVVCKQKALELLPKVEEVVSLMNEDEKTVVRLQEKRQKELWNLLKIACSKVRGPVSGSPDSMNASRLSQPGQLMSQPSTASNSLPEPAKKSEELVAEAHNLCTLLENAIQDTVREQDQSFTALDWSWLQTEEEEHSCLEQAS | – |

| Binder | binding [2] | binding [1] |
| --- | --- | --- |
| inhibitor of nuclear factor kappa B kinase subunit beta (IKBKB), FLAG-tagged (enzyme, UniProt O14920 1-756) MSWSPSLTTQTCGAWEMKERLGTGGFGNVIRWHNQETGEQIAIKQCRQELSPRNRERWCLEIQIMRRLTHPNVVAARDVPEGMQNLAPNDLPLLAMEYCQGGDLRKYLNQFENCCGLREGAILTLLSDIASALRYLHENRIIHRDLKPENIVLQQGEQRLIHKIIDLGYAKELDQGSLCTSFVGTLQYLAPELLEQQKYTVTVDYWSFGTLAFECITGFRPFLPNWQPVQWHSKVRQKSEVDIVVSEDLNGTVKFSSSLPYPNNLNSVLAERLEKWLQLMLMWHPRQRGTDPTYGPNGCFKALDDILNLKLVHILNMVTGTIHTYPVTEDESLQSLKARIQQDTGIPEEDQELLQEAGLALIPDKPATQCISDGKLNEGHTLDMDLVFLFDNSKITYETQISPRPQPESVSCILQEPKRNLAFFQLRKVWGQVWHSIQTLKEDCNRLQQGQRAAMMNLLRNNSCLSKMKNSMASMSQQLKAKLDFFKTSIQIDLEKYSEQTEFGITSDKLLLAWREMEQAVELCGRENEVKLLVERMMALQTDIVDLQRSPMGRKQGGTLDDLEEQARELYRRLREKPRDQRTEGDSQEMVRLLLQAIQSFEKKVRVIYTQLSKTVVCKQKALELLPKVEEVVSLMNEDEKTVVRLQEKRQKELWNLLKIACSKVRGPVSGSPDSMNASRLSQPGQLMSQPSTASNSLPEPAKKSEELVAEAHNLCTLLENAIQDTVREQDQSFTALDWSWLQTEEEEHSCLEQAS | binds | binds |
